Assay results as given in publication PMC7239482.
Results are given in words; binding and its absence hold for the method and conditions named. Binding seen in cells or lysates may run through a third protein. Tags and fused reporters may be left off the sequences shown.

Molecular target: T1, GST-SID-3 (C. elegans) (UniProt Q10925)
T1 sequence: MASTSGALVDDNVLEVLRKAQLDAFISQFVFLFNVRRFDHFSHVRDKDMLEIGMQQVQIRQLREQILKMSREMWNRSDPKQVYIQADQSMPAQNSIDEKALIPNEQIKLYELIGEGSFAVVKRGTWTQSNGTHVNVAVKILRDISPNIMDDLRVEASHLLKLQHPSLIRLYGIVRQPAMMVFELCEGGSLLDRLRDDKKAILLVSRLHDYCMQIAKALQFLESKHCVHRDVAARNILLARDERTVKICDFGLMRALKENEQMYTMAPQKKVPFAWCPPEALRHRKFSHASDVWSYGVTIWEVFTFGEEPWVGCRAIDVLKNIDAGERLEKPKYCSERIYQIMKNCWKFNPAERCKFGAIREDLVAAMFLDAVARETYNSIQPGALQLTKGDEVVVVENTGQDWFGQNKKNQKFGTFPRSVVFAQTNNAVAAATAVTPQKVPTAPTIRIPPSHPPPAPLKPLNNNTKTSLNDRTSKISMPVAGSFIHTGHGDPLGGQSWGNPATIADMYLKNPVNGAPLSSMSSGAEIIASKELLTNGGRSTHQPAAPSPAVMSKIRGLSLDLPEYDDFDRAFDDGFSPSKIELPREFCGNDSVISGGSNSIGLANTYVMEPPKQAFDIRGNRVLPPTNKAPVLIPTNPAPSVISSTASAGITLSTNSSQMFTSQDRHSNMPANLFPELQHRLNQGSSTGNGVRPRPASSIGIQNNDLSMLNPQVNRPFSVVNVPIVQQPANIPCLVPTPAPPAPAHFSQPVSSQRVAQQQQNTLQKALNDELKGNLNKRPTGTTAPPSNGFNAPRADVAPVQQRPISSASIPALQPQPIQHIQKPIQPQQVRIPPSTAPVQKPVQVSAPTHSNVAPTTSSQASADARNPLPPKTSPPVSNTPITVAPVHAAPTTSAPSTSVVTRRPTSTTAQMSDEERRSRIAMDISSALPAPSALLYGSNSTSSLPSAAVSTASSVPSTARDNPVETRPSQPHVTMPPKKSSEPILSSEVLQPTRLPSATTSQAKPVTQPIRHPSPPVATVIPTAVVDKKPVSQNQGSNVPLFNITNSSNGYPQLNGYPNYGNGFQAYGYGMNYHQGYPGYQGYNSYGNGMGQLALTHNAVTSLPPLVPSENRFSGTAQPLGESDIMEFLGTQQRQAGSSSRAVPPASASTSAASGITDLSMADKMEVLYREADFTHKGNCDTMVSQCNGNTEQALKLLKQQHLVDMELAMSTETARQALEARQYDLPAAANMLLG
Assay: pull-down; GST fusion on glutathione sepharose 4B beads; in vitro translated HA-tagged protein (15 μL TNT mix in 700 μL binding buffer) bound at 4°C overnight; washes in 50 mM Tris pH 8.0, 300 mM NaCl, 0.2% NP-40, 1 mM DTT; anti-HA blot; only the target purified

binding: no binding
B1: HA-RAB-10(Q68L) (protein, UniProt Q94148 1-201)
chain: MARRPYDMLFKLLLIGDSGVGKTCILYRFSDDAFNTTFISTIGIDFKIKTIELKGKKIKLQIWDTAGLERFHTITTSYYRGAMGIMLVYDITNAKSFDNIAKWLRNIDEHASEDVVKMILGNKCDMSDRRVVSRERGEKIAQDHGISFHETSAKLNVHVDTAFYDLAEAILAKMPDSTDEQSRDTVNPVQPQRQSSSGGCC
